Data as given in article PMC8980994.
These are yes or no findings as the source states them, for the method shown. In cells and extracts the contact can be indirect. Some binding calls cover weakened binding; strength is not graded here.

Chains of the proteins cited; added tags and fusions are not shown. Lines headed by an entry give the natural chain unless they say otherwise; changes in a name come on top. A line that says so, or that is headed by a name, gives the form on record, which may keep a tag or linker. Residues count along the entry.
UniProt Q99IB8, residues 1977-2442: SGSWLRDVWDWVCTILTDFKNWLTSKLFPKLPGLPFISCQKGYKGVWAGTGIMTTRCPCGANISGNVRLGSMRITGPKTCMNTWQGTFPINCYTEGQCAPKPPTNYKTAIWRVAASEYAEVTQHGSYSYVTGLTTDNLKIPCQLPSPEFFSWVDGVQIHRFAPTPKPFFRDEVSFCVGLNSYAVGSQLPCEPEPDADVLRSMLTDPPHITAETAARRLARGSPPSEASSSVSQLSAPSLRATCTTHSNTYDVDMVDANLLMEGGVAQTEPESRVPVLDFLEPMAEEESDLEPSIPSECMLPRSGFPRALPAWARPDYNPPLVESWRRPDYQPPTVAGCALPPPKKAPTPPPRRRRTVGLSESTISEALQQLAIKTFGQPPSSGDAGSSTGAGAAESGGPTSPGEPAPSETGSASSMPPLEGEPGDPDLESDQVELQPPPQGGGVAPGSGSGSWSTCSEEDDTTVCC
human Abl, variant b, wild type (Abl-WT) (P00519-2, form named): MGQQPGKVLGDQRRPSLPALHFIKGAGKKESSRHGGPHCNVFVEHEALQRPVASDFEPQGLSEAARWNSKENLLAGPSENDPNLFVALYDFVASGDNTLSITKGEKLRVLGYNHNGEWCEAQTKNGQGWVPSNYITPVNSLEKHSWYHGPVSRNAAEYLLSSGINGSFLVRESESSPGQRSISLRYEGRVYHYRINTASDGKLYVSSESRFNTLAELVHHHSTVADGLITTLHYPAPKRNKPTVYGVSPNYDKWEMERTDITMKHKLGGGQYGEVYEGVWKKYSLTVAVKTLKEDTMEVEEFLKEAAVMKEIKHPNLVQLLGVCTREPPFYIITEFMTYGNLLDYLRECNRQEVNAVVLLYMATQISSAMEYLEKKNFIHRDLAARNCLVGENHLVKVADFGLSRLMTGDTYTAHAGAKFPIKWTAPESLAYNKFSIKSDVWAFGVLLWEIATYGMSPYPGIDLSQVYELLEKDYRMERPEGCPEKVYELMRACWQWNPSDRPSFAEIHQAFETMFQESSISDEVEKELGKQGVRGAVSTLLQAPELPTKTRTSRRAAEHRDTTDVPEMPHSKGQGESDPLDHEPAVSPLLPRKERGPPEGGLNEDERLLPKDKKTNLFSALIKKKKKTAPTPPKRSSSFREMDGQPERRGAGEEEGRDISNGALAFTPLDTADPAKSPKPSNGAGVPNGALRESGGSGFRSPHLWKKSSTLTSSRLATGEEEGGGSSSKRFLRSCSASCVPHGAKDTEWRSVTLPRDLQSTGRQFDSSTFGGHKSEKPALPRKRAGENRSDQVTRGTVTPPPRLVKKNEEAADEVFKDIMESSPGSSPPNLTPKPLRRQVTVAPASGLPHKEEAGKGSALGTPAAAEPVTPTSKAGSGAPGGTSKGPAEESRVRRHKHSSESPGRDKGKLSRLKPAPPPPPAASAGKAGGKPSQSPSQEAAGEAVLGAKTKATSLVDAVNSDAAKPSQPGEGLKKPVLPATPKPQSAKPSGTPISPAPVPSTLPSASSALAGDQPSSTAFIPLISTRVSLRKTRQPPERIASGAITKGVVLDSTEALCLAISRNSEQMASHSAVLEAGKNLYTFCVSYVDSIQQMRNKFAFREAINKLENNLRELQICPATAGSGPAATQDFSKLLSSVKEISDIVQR

Molecular target: HCV nonstructural protein 5A, JFH1 strain, wild type, Myc-His tagged (NS5A-WT) (hepatitis C virus (JFH1 strain)) (UniProt Q99IB8)
Assay: co-IP; HEK 293T cells transiently cotransfected with Abl and NS5A-myc-His plasmids, 22 h; lysed in lysis buffer (50 mM Tris pH 7.4, 150 mM NaCl, 10 mM EDTA, 100 mM NaF, 1 mM Na3VO4, 1% Triton X-100) lacking DOC and SDS; anti-Myc mAb immunoprecipitation overnight at 4 °C, protein A-Sepharose; immunoblot with anti-Abl

## human Abl, variant b, wild type (Abl-WT) (from UniProt P00519-2 1-1149) (enzyme)
  binding: binds
